The other results are listed elsewhere or left out.
What follows are targets tested with COc1ccc(Cn2ccc3ccc(C(=O)NO)cc32)cc1 (assay: dose-dependent thermal stabilisation call (2D-TPP, DLPTP, 10% FDR) (binary (1 = stabilised)); higher = stabilised by the compound). Conditions: system: HL-60 intact cells; concentration range 0.04-10 µM.

Amino acid sequences for entries named in this document (tags omitted). A change or cut given only in a name is not applied to a line headed by its entry.
UniProt O76071: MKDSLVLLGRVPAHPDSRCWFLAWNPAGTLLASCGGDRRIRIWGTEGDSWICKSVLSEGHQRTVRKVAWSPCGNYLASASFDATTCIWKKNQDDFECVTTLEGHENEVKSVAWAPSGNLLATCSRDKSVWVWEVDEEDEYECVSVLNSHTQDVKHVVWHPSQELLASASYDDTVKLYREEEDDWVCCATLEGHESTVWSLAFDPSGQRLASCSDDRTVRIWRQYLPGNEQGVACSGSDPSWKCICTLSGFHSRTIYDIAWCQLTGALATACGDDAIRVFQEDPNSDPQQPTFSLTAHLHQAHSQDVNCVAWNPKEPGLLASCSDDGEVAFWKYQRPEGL
UniProt P49368: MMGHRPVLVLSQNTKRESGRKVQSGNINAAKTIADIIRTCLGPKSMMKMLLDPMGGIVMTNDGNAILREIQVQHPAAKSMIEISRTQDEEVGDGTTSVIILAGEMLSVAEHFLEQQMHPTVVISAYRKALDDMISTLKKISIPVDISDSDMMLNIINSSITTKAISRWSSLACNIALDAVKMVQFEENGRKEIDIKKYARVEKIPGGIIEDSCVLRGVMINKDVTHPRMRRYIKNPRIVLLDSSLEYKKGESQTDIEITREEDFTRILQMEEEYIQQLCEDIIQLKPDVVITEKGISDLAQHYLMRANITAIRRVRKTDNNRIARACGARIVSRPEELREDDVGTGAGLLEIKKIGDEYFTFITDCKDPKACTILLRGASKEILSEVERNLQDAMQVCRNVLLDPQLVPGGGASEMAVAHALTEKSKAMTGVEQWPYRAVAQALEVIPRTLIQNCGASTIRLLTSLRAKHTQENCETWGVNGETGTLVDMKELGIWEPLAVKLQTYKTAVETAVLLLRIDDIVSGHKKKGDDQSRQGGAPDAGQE
UniProt Q9ULV3: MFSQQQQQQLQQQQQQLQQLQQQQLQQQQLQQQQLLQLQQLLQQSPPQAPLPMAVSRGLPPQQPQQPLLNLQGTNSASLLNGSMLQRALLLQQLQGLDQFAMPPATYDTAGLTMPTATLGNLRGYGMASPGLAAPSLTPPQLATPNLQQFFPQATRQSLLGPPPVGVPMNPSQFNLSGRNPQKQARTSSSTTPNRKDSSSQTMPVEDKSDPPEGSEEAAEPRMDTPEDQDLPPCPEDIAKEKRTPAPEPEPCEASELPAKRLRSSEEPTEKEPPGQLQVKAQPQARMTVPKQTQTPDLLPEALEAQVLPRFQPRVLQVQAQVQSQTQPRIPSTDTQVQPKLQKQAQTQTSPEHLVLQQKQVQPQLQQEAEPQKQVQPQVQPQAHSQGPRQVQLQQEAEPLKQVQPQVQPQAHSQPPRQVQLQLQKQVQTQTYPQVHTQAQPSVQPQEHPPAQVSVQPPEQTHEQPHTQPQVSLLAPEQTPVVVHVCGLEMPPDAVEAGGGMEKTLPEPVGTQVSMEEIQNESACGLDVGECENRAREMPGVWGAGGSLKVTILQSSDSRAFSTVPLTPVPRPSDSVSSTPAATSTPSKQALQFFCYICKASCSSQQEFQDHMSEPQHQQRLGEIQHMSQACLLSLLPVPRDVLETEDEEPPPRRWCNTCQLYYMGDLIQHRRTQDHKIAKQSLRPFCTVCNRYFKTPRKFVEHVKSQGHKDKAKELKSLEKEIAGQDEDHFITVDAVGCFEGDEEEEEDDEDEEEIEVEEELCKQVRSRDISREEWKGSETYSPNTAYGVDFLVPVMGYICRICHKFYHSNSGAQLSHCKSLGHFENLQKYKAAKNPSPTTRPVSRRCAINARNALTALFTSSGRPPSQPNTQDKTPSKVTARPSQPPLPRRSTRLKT
UniProt Q7LBR1: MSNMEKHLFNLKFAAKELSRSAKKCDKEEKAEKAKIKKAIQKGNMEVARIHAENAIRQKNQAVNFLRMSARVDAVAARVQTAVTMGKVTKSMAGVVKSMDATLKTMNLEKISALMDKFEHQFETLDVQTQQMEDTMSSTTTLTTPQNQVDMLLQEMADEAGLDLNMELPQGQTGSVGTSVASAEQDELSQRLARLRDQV
UniProt Q14011: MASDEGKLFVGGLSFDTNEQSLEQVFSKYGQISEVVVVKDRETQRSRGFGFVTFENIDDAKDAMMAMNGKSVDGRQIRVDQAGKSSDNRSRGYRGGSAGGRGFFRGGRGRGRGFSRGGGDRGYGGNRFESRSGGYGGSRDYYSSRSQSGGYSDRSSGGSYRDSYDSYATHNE
UniProt P49336: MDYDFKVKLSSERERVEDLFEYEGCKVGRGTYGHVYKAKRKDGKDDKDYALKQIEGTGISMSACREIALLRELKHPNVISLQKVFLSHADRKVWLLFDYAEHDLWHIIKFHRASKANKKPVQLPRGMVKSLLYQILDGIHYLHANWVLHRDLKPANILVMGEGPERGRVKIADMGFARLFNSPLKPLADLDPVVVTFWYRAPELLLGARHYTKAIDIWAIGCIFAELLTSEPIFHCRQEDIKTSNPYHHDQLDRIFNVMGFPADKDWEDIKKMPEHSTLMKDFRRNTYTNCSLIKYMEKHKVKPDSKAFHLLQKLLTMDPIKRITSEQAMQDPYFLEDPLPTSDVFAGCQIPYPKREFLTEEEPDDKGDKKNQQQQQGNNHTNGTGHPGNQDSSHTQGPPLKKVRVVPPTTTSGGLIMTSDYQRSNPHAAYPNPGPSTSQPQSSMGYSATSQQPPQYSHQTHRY
UniProt P0C7P0: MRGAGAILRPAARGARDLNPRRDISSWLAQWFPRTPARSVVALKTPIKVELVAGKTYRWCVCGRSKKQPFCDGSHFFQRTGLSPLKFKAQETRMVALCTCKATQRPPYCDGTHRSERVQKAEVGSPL
UniProt Q9UHD1: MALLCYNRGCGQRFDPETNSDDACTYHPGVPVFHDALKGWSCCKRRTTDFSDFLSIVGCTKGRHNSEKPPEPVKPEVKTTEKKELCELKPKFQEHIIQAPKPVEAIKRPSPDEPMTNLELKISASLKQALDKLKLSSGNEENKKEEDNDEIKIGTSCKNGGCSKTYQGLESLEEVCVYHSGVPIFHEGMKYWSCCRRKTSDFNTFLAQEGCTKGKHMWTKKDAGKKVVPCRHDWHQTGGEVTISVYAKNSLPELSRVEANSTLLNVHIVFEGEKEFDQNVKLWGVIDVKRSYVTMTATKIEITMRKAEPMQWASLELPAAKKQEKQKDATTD
UniProt Q05315: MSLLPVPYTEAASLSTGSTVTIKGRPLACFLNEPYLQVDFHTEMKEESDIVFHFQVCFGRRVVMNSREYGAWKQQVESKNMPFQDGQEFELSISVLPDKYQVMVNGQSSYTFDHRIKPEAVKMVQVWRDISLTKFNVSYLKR
UniProt Q8TAP6: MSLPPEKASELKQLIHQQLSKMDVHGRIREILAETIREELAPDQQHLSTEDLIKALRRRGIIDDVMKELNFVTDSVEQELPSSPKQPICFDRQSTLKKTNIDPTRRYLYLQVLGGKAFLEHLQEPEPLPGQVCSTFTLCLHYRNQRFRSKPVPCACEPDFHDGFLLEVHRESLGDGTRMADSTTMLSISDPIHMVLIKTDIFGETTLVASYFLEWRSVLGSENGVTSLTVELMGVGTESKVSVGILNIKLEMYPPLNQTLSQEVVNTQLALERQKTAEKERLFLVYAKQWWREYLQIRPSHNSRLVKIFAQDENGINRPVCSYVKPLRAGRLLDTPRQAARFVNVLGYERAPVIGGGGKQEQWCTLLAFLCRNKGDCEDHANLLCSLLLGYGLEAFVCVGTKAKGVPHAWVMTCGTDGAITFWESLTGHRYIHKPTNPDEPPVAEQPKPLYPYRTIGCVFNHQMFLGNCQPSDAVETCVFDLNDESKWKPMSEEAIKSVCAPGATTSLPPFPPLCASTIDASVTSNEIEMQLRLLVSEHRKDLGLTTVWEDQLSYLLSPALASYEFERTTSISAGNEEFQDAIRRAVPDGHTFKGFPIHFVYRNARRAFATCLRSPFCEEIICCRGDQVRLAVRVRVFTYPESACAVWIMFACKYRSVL

Target | dose-dependent thermal stabilisation call
CIAO1 (UniProt O76071) | inactive: 0
CCT3 (UniProt P49368) | inactive: 0
CIZ1 (UniProt Q9ULV3) | inactive: 0
CHMP1B (UniProt Q7LBR1) | inactive: 0
CLIC1 (UniProt O00299) | inactive: 0
CIRBP (UniProt Q14011) | inactive: 0
CDK8 (UniProt P49336) | inactive: 0
CISD3 (UniProt P0C7P0) | inactive: 0
CHORDC1 (UniProt Q9UHD1) | inactive: 0
CLC (UniProt Q05315) | inactive: 0
CEP76 (UniProt Q8TAP6) | inactive: 0
